Source: the supplement of paper PMC10849652
The other results are listed elsewhere or left out.

Protein sequences, listed by entry. Tags and fused reporters are not part of them. Lines headed by an entry give the natural chain unless they say otherwise; changes in a name come on top.
UniProt O75695: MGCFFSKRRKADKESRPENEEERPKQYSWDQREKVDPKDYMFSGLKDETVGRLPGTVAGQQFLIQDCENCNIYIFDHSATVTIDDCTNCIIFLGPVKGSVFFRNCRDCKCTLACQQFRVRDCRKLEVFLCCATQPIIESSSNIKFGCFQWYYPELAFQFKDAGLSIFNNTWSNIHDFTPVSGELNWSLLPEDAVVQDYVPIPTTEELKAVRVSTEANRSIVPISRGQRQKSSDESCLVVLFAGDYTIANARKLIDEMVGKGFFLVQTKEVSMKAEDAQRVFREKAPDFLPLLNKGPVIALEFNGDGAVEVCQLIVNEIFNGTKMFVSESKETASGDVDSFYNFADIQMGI
UniProt Q9H633: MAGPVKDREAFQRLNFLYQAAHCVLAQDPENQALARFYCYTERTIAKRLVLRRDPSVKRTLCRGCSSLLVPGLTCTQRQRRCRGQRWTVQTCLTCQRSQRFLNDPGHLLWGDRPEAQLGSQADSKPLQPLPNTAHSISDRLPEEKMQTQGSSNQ
UniProt Q7L523, whole entry, looked up: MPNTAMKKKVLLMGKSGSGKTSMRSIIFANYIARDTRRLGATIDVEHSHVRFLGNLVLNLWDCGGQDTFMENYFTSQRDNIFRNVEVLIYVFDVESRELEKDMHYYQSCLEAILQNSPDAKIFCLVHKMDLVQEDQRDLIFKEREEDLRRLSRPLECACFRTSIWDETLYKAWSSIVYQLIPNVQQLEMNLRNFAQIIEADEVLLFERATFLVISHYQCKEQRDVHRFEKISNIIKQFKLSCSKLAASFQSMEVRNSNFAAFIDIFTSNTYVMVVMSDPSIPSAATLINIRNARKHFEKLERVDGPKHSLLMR
UniProt O43148, whole entry, looked up: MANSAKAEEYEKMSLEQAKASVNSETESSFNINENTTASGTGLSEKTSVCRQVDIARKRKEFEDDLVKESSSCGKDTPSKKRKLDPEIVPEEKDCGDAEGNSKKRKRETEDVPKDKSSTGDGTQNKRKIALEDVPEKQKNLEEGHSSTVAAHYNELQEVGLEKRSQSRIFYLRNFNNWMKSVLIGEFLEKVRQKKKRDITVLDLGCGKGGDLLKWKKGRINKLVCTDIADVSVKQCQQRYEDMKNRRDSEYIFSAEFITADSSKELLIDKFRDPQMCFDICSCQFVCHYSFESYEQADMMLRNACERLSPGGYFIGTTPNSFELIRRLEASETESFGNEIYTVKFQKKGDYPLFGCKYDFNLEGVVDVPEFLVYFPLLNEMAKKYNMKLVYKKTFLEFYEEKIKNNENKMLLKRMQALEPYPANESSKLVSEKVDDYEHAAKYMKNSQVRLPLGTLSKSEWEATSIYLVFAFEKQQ

Legend:
Assay in all cases: log2 fold change, soluble protein after heating vs DMSO (PISA); higher = thermal stabilisation; K562 cells, 10 uM, 30 min; active = over 0.2 and 3.5 SD of the protein, either way, in both replicates (recomputed)
[1] = compound: CC[C@@H]1C(=O)N(C)c2cnc(Nc3ccc(C(=O)NC4CCN(C)CC4)cc3OC)nc2N1C1CCCC1
How it was run: (§1)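 Values are thermal stability changes relative to control samples and are taken from duplicates. They are stated as log2 fold changes. Before quantification by TMTpro 16plex LC-MS/MS with equalised channel sums, K562 cells at 2×10^6 cells/mL were treated with 10 μM compound for 30 min, heated in aliquots for 3 min across 48°C-58°C, pooled, extracted in PBS with 0.5% NP-40 at 4°C, and centrifuged at 21,000xg for 90 min to give the soluble supernatant.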

volasertib = compound: CC[C@@H]1C(=O)N(C)c2cnc(Nc3ccc(C(=O)N[C@H]4CC[C@H](N5CCN(CC6CC6)CC5)CC4)cc3OC)nc2N1C(C)C [volasertib]
How it was run: as §1

[2] = compound: CC[C@H](C)N1C=C(C2=C(C=C(C=C21)C3=CN=C(C=C3)N4CCNCC4)C(=O)NCC5=C(C=C(NC5=O)C)C)C
How it was run: as §1

epoxomicin = compound: CC[C@H](C)[C@@H](C(=O)N[C@@H]([C@@H](C)O)C(=O)N[C@@H](CC(C)C)C(=O)[C@]1(CO1)C)NC(=O)[C@H]([C@@H](C)CC)N(C)C(=O)C [epoxomicin]
How it was run: as §1

[3] = compound: CCn1c(C(=O)N(C2CC2)C2CC2)cc2c3c(ncn3C)c(Nc3cc(C)n(C)n3)nc21
How it was run: as §1

[4] = compound: CCn1cc(-c2ccnc3[nH]c(-c4cccc(CN(C)C)c4)cc23)c(-c2ccc(NC(=O)N(C)C)cc2)n1
How it was run: as §1

[5] = compound: CN(C)CC(=O)Nc1ccc2[nH]c(=O)c3ccccc3c2c1
How it was run: as §1

rosiglitazone = compound: CN(CCOC1=CC=C(C=C1)C[C@H]2C(=O)NC(=O)S2)C3=CC=CC=N3 (racemic) [rosiglitazone]
How it was run: as §1

[6] = compound: CN1C2=C(C3=C1C(=O)N(N=C3)CC4=CC(=CC=C4)N)SC(=C2)S(=O)C
How it was run: as §1

[7] = compound: CN1CCC(CNc2ccc3ncc(-c4cccc(OC(F)(F)F)c4)n3n2)CC1
How it was run: as §1

saracatinib = compound: CN1CCN(CCOc2cc(OC3CCOCC3)c3c(Nc4c(Cl)ccc5c4OCO5)ncnc3c2)CC1 [saracatinib]
How it was run: as §1

sotrastaurin = compound: CN1CCN(c2nc(C3=C(c4c[nH]c5ccccc45)C(=O)NC3=O)c3ccccc3n2)CC1 [sotrastaurin]
How it was run: as §1

alvocidib = compound: CN1CC[C@H](c2c(O)cc(O)c3c(=O)cc(-c4ccccc4Cl)oc23)[C@H](O)C1 [alvocidib]
How it was run: as §1

Tubastatin A = compound: CN1CCc2c(c3ccccc3n2Cc2ccc(C(=O)NO)cc2)C1 [Tubastatin A]
How it was run: as §1

[8] = compound: CNC(=O)C1=CC=CC=C1NC2=NC(=NC=C2Cl)NC3=C(C=C(C=C3)N4CCOCC4)OC
How it was run: as §1

defactinib = compound: CNC(=O)c1ccc(Nc2ncc(C(F)(F)F)c(NCc3nccnc3N(C)S(C)(=O)=O)n2)cc1 [defactinib]
How it was run: as §1

rucaparib = compound: CNCc1ccc(-c2[nH]c3cc(F)cc4c3c2CCNC4=O)cc1 [rucaparib]
How it was run: as §1

[9] = compound: CNc1nc(-c2ccc3c(N)n[nH]c3c2)cc(N2C[C@@H](C(=O)NC3CCCCC3)CC[C@H]2C)n1
How it was run: as §1

encorafenib = compound: COC(=O)N[C@@H](C)CNc1nccc(-c2cn(C(C)C)nc2-c2cc(Cl)cc(NS(C)(=O)=O)c2F)n1 [encorafenib]
How it was run: as §1

[10] = compound: COC(=O)[C@H](CCSC)NC(=O)C1=C(C=C(C=C1)NC[C@H](CS)N)C2=CC=CC=C2
How it was run: as §1

Measured: log2 fold change

RPS15A (UniProt P62244)
inactive: [1] 0.15 | volasertib 0.473 | [2] 0.033 | epoxomicin -0.308 | [3] 0.007 | [4] 0.242 | [5] -0.1 | rosiglitazone -0.144 | [6] 0.236 | [7] 0.184 | saracatinib -0.099 | sotrastaurin -0.021 | alvocidib 0.297 | Tubastatin A 0.155 | [8] 0.074 | defactinib 0.31 | rucaparib 0.218 | [9] 0.144 | encorafenib 0.12 | [10] -0.03

RPS27L (UniProt Q71UM5)
inactive: [1] 0.061 | volasertib 0.139 | [2] 0.067 | epoxomicin 0.024 | [3] 0.031 | [4] -0.083 | [5] -0.035 | rosiglitazone -0.029 | [6] 0.043 | [7] -0.009 | saracatinib -0.087 | sotrastaurin 0.025 | alvocidib 0.068 | Tubastatin A 0.026 | [8] 0.062 | defactinib 0.099 | rucaparib 0.225 | [9] 0.088 | encorafenib 0.067 | [10] -0.02

RPL35A (UniProt P18077)
inactive: [1] 0.254 | volasertib 0.885 | [2] -0.018 | epoxomicin -0.714 | [3] 0.098 | [4] 0.444 | [5] -0.319 | rosiglitazone -0.412 | [6] 0.553 | [7] 0.387 | saracatinib -0.183 | sotrastaurin -0.041 | alvocidib 0.534 | Tubastatin A 0.225 | [8] 0.033 | defactinib 0.627 | rucaparib 0.422 | [9] 0.235 | encorafenib 0.228 | [10] -0.015

RPL3 (UniProt P39023)
inactive: [1] 0.302 | volasertib 0.815 | [2] -0.006 | epoxomicin -0.745 | [3] 0.062 | [4] 0.273 | [5] -0.276 | rosiglitazone -0.349 | [6] 0.573 | [7] 0.414 | saracatinib -0.17 | sotrastaurin -0.023 | alvocidib 0.456 | Tubastatin A 0.256 | [8] 0.045 | defactinib 0.607 | rucaparib 0.436 | [9] 0.25 | encorafenib 0.247 | [10] -0.031

RP2 (UniProt O75695)
inactive: [1] 0.079 | volasertib -0.08 | [2] 0.142 | epoxomicin -0.023 | [3] 0.092 | [4] 0.055 | [5] -0.037 | rosiglitazone 0.026 | [6] -0.056 | [7] 0.28 | saracatinib 0.083 | sotrastaurin -0.163 | alvocidib 0 | Tubastatin A 0.042 | [8] 0.037 | defactinib -0.04 | rucaparib -0.059 | [9] -0.05 | encorafenib 0.037 | [10] -0.069

RPL24 (UniProt P83731)
inactive: [1] 0.191 | volasertib 0.464 | [2] 0.009 | epoxomicin -0.375 | [3] 0.03 | [4] 0.168 | [5] -0.112 | rosiglitazone -0.19 | [6] 0.306 | [7] 0.224 | saracatinib -0.069 | sotrastaurin -0.034 | alvocidib 0.337 | Tubastatin A 0.108 | [8] 0.061 | defactinib 0.358 | rucaparib 0.388 | [9] 0.157 | encorafenib 0.104 | [10] -0.038

RPL36 (UniProt Q9Y3U8)
inactive: [1] 0.256 | volasertib 0.795 | [2] -0.04 | epoxomicin -0.611 | [3] 0.056 | [4] 0.294 | [5] -0.236 | rosiglitazone -0.295 | [6] 0.555 | [7] 0.448 | saracatinib -0.123 | sotrastaurin -0.044 | alvocidib 0.432 | Tubastatin A 0.254 | [8] -0.009 | defactinib 0.602 | rucaparib 0.431 | [9] 0.23 | encorafenib 0.184 | [10] 0.033

RPP21 isoform 4 (UniProt Q9H633)
inactive: [1] 0.096 | volasertib -0.015 | [2] 0.08 | epoxomicin 0.004 | [3] 0.104 | [4] -0.345 | [5] -0.009 | rosiglitazone 0.015 | [6] 0.011 | [7] 0.216 | saracatinib 0.069 | sotrastaurin -0.015 | alvocidib -0.028 | Tubastatin A 0.115 | [8] -0.044 | defactinib -0.205 | rucaparib -0.006 | [9] 0.003 | encorafenib 0.003 | [10] -0.037

RPL11 (UniProt P62913)
inactive: [1] 0.193 | volasertib 0.467 | [2] 0.01 | epoxomicin -0.591 | [3] 0.01 | [4] 0.217 | [5] -0.231 | rosiglitazone -0.248 | [6] 0.449 | [7] 0.314 | saracatinib -0.149 | sotrastaurin -0.036 | alvocidib 0.449 | Tubastatin A 0.201 | [8] 0.082 | defactinib 0.483 | rucaparib 0.423 | [9] 0.167 | encorafenib 0.172 | [10] 0.012

RRAGA (UniProt Q7L523)
inactive: [1] -0.057 | volasertib 0.007 | [2] -0.029 | epoxomicin 0.021 | [3] 0.071 | [4] 0 | [5] 0.017 | rosiglitazone 0.009 | [6] -0.106 | [7] 0.036 | saracatinib 0.118 | sotrastaurin -0.019 | alvocidib -0.145 | Tubastatin A -0.027 | [8] -0.02 | defactinib -0.068 | rucaparib 0.006 | [9] 0.01 | encorafenib 0.002 | [10] 0.055

RPLP0 (UniProt P05388)
inactive: [1] 0.299 | volasertib 0.756 | [2] -0.022 | epoxomicin -0.698 | [3] 0.083 | [4] 0.313 | [5] -0.259 | rosiglitazone -0.291 | [6] 0.508 | [7] 0.429 | saracatinib -0.158 | sotrastaurin -0.035 | alvocidib 0.425 | Tubastatin A 0.22 | [8] 0.014 | defactinib 0.556 | rucaparib 0.424 | [9] 0.223 | encorafenib 0.192 | [10] 0.008

RPS10 (UniProt P46783)
inactive: [1] 0.125 | volasertib 0.332 | [2] 0 | epoxomicin -0.087 | [3] 0.006 | [4] 0.08 | [5] -0.064 | rosiglitazone -0.065 | [6] 0.079 | [7] 0.12 | saracatinib -0.04 | sotrastaurin 0.012 | alvocidib 0.162 | Tubastatin A 0.038 | [8] 0.062 | defactinib 0.114 | rucaparib 0.131 | [9] 0.047 | encorafenib 0.019 | [10] 0.004

2 records drawn at random from the list so far:
RRAGA (UniProt Q7L523)
inactive: [1] -0.057 | volasertib 0.007 | [2] -0.029 | epoxomicin 0.021 | [3] 0.071 | [4] 0 | [5] 0.017 | rosiglitazone 0.009 | [6] -0.106 | [7] 0.036 | saracatinib 0.118 | sotrastaurin -0.019 | alvocidib -0.145 | Tubastatin A -0.027 | [8] -0.02 | defactinib -0.068 | rucaparib 0.006 | [9] 0.01 | encorafenib 0.002 | [10] 0.055

RPS10 (UniProt P46783)
inactive: [1] 0.125 | volasertib 0.332 | [2] 0 | epoxomicin -0.087 | [3] 0.006 | [4] 0.08 | [5] -0.064 | rosiglitazone -0.065 | [6] 0.079 | [7] 0.12 | saracatinib -0.04 | sotrastaurin 0.012 | alvocidib 0.162 | Tubastatin A 0.038 | [8] 0.062 | defactinib 0.114 | rucaparib 0.131 | [9] 0.047 | encorafenib 0.019 | [10] 0.004

Additional results

RNMT isoform 2 (UniProt O43148)
inactive: [1] 0.117 | volasertib 0.094 | [2] -0.03 | epoxomicin -0.001 | [3] -0.007 | [4] 0.028 | [5] -0.099 | rosiglitazone -0.018 | [6] 0.076 | [7] 0.095 | saracatinib -0.029 | sotrastaurin 0.049 | alvocidib 0.122 | Tubastatin A 0.007 | [8] 0.001 | defactinib 0.03 | rucaparib 0.076 | [9] -0.027 | encorafenib 0.013 | [10] 0.011

RPS17 (UniProt P08708)
inactive: [1] 0.101 | volasertib 0.263 | [2] 0.028 | epoxomicin -0.159 | [3] 0.02 | [4] 0.14 | [5] -0.048 | rosiglitazone -0.041 | [6] 0.149 | [7] 0.082 | saracatinib -0.044 | sotrastaurin 0.007 | alvocidib 0.16 | Tubastatin A 0.046 | [8] 0.058 | defactinib 0.14 | rucaparib 0.16 | [9] 0.076 | encorafenib 0.031 | [10] 0.024

RPL27A (UniProt P46776)
inactive: [1] 0.195 | volasertib 0.581 | [2] 0 | epoxomicin -0.502 | [3] 0.01 | [4] 0.396 | [5] -0.184 | rosiglitazone -0.243 | [6] 0.441 | [7] 0.401 | saracatinib -0.119 | sotrastaurin -0.018 | alvocidib 0.399 | Tubastatin A 0.158 | [8] 0.055 | defactinib 0.45 | rucaparib 0.42 | [9] 0.134 | encorafenib 0.157 | [10] 0.096
